Laboratory results as given in the supplement of paper PMC12889115.
Some of the results follow. Values are raw readings; no control value is given beside them.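 Primary screen: polymyxin B was added at a level permeabilizing Salmonella outer membranes while sparing inner membranes. DMSO wells, both with and without polymyxin B, established maximum growth. Plate-to-plate variation meant each plate was ranked on its own, and the lowest-OD600 compounds were selected as hits.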

System: Salmonella enterica serovar Typhimurium SL1344
Experiment: bacterial growth OD600 after 18 h with compound and polymyxin B; higher = more bacterial growth (less inhibition)
Details: 50 µM, Mueller-Hinton broth

| Structure (SMILES) | bacterial growth OD600 (polymyxin B 0.75 µg/mL) | bacterial growth OD600 (polymyxin B 1 µg/mL) |
| --- | --- | --- |
| CSc1ccc(CC2(CCC(=O)N(Cc3c(C)nn(C)c3C)C(C)C)CCC(=O)N2)cc1 (stereo not given) | 0.844 | – |
| COC(=O)[C@@H]1CCCN1c1ccc(-c2nc(COc3ccccc3)no2)cn1 | – | 0.817 |
| CN(Cc1cccc2ncccc12)C(=O)CC1(c2cccc(C(F)(F)F)c2)CC(=O)N(C2CC2)C1=O (stereo not given) | 0.633 | – |
| Cc1cccc(-c2cnc(C)nc2C2CCCN(C(=O)c3cccc(F)c3F)C2)c1 (stereo not given) | 0.182 | – |
| O=C(NCCN1CCOCC1)c1ccc(N2CCC(NCCn3ccc4ccccc43)CC2)cc1 | 0.839 | – |
| Nc1cc(C(=O)N2CCC(C3CCN(Cc4cccnc4)CC3)C2)ccn1 (stereo not given) | 0.836 | – |
| CSCCC(=O)NC1CC(=O)N(CCc2cccc(Cl)c2)C1 (stereo not given) | – | 0.892 |
| COc1cccc(C(=O)NCC2Cc3cc(C)cc(-c4cc(C(C)=O)ccc4F)c3O2)c1OC (stereo not given) | 0.5 | – |
| Cc1nnc(SCC(=O)NC2CCCN(C3Cc4ccccc4C3)C2)s1 (stereo not given) | – | 0.932 |
| COc1ccc(CC2(CCC(=O)NCc3cc(F)cc(F)c3)CCC(=O)N2)c2ccccc12 (stereo not given) | 0.741 | – |
| CC(CNCc1cccnc1N1CCOCC1)Cc1ccc2c(c1)OCO2 (stereo not given) | – | 0.951 |
| CC1CN(CCC(=O)NCC(c2ccncc2)N2CCOCC2)Cc2cc(Cl)ccc2O1 (stereo not given) | 1.02 | – |
| CSCCC(=O)N1CCOC(CCN(C)C)C1 (stereo not given) | 0.9 | – |
| COc1cccc(CCC2CCCN(C(=O)c3ccc(=O)n(C)n3)C2)c1 (stereo not given) | 0.827 | – |
| COc1cccc(-c2cc(CC3(O)CCN(Cc4cccc5cccnc45)CC3)on2)c1 | – | 0.906 |
| CCN1C(=O)CC(CC(=O)N2CC3CCC2C3)(c2cccc(C(F)(F)F)c2)C1=O (stereo not given) | 0.749 | – |
| CCCN1CCCN(c2ccc(C(=O)NCCCc3c(C)noc3C)cn2)CC1 | – | 1.19 |
| COc1ccccc1OCC(=O)NCC1CCCN(C(=O)CSc2ccccc2)C1 (stereo not given) | – | 0.919 |
| CN1C(=O)CC(CC(=O)N2CCCCC2c2nccs2)(c2ccc(-c3ccccc3)cc2)C1=O (stereo not given) | -0.001 | – |
| COCCN1C(=O)CC(CC(=O)N(CCOC)C(C)C)(c2ccccc2OC)C1=O (stereo not given) | 0.815 | – |

Three entries out of the list, arranged by molar mass, largest number first.

| Structure (SMILES) | bacterial growth OD600 (polymyxin B 0.75 µg/mL) | bacterial growth OD600 (polymyxin B 1 µg/mL) |
| --- | --- | --- |
| COCCN1C(=O)CC(CC(=O)N(CCOC)C(C)C)(c2ccccc2OC)C1=O (stereo not given) | 0.815 | – |
| Cc1nnc(SCC(=O)NC2CCCN(C3Cc4ccccc4C3)C2)s1 (stereo not given) | – | 0.932 |
| CSCCC(=O)NC1CC(=O)N(CCc2cccc(Cl)c2)C1 (stereo not given) | – | 0.892 |
